# Some of these results come from one statement about several compounds together.
# Tested on: Stage III triple negative breast cancer
# Test: Clinical response of patients with triple negative breast cancer to combination therapy
# Type: in vivo, human
# Excerpt: Patient #4 represents a patient diagnosed with Stage III triple negative breast cancer (e.g., ER-, PR-, HER2-). The patient underwent radical mastectomy.
# Patient #5 represents a patient diagnosed with Stage III triple negative breast cancer (e.g., ER-, PR-, HER2-). The patient underwent radical mastectomy.
structure (smiles),measurement,setting,value
"CS(=O)(=O)CCNCc1ccc(-c2ccc3ncnc(Nc4ccc(OCc5cccc(F)c5)c(Cl)c4)c3c2)o1 [Lapatinib, lapatinib]",time in good condition,"Patient #4, combination therapy of Herceptin and Lapatinib",over 7 months
same,duration of response to therapy,"Patient #5, combination therapy of Herceptin with lapatinib or pertuzumab",over 6 months

# — patent publication US20140273006A1, “METHOD OF THERAPY SELECTION FOR PATIENTS WITH CANCER” (NESTEC S.A., priority 2011, published 2014)
